Measured values from US20200277377A1.
Results are given in words; binding and its absence hold for the method and conditions named. Some binding calls cover weakened binding; strength is not graded here.

Chains of the proteins cited; added tags and fusions are not shown. Lines headed by an entry give the natural chain unless they say otherwise; changes in a name come on top. A line that says so, or that is headed by a name, gives the form on record, which may keep a tag or linker. Residues count along the entry.
UniProt P16410: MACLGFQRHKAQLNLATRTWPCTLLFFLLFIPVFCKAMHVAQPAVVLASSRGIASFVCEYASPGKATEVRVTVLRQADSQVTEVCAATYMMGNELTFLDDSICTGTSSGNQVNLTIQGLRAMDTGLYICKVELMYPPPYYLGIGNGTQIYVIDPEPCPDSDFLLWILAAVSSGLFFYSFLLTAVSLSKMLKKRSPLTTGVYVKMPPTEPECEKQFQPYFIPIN
full length human CTLA-4 on cells: residues 36-223 of P16410
biotinylated human CTLA-4 (Example 3 FACS competition): residues 36-161 of P16410
hCTLA4_ECD.His (N113 Q) (P16410, form named): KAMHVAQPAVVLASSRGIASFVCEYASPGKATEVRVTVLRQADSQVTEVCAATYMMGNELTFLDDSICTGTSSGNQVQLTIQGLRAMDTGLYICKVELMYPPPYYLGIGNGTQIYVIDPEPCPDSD
human CTLA-4.ECD-6×His (P16410, form named): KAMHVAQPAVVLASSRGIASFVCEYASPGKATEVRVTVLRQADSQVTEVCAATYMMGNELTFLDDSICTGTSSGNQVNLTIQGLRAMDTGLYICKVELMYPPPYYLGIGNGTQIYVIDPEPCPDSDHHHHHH
Murine CTLA-4.ECD-6×His (P09793, form named): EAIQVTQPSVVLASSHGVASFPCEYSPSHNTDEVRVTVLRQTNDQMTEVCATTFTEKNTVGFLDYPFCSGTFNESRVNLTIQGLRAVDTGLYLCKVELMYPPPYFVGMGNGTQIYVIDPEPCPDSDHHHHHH

Columns and labels:
[1] = biological target: CTLA-4.ECD (antigen panel of the specificity ELISA) (Homo sapiens (Human)) (UniProt P16410); assay: ELISA, coated antigen 2 µg/mL, antibody 10 µg/mL
[2] = biological target: CTLA-4.ECD (antigen panel of the specificity ELISA) (Homo sapiens (Human)) (UniProt P16410); assay: specificity ELISA on coated antigens, antibody at 10 ug/mL, OD
[3] = biological target: T1, monkey CTLA-4 (Example 3 ELISA, construct not stated) (cynomolgus monkey) (UniProt G7PL88); assay: ELISA
T1 sequence: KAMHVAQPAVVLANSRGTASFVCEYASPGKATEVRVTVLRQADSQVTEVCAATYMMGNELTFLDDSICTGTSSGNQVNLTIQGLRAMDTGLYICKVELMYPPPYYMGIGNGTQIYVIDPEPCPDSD

[4] = biological target: T1, monkey CTLA-4 (Example 3 ELISA, construct not stated) (cynomolgus monkey); assay: ELISA, antibody titrated on cyno CTLA-4, OD450
[5] = biological target: Murine CTLA-4.ECD-6×His (mouse) (UniProt P09793); assay: SPR
[6] = biological target: hCTLA4_ECD.His (N113 Q) (human) (UniProt P16410); assay: capture ELISA with glycosylation-site mutein
[7] = biological target: human CTLA-4.ECD-6×His (human) (UniProt P16410); assay: capture ELISA, antibody on anti-human Fc, hCTLA4-His, anti-His-HRP
[8] = biological target: full length human CTLA-4 on cells (human) (UniProt P16410); assay: FACS on 293F cells expressing human CTLA-4, PE anti-human IgG, MFI
[9] = biological target: full length human CTLA-4 on cells (human) (UniProt P16410); assay: FACS affinity test on cells expressing human CTLA-4, B/F against bound IgG
[10] = biological target: human CTLA-4.ECD-6×His (human) (UniProt P16410); assay: ELISA, antibody titrated on coated human CTLA-4.ECD-6xHis, OD450 [A) Human CTLA-4]
[11] = biological target: Murine CTLA-4.ECD-6×His (mouse) (UniProt P09793); assay: ELISA, antibody titrated on coated mouse CTLA-4.ECD-6xHis, OD450 [C) Murine CTLA-4]
[12] = biological target: human CTLA-4.ECD-6×His (human) (UniProt P16410); assay: capture ELISA: W3162-1.146.19-z12 captured on anti-human Fc, hCTLA4-His supernatant titrated (ng/ml), HRP-anti-His [B]
[13] = biological target: hCTLA4_ECD.His (N113 Q) (human) (UniProt P16410); assay: capture ELISA: W3162-1.146.19-z12 captured on anti-human Fc, hCTLA4-His mutein supernatant titrated (ng/ml), HRP-anti-His [B]
[14] = biological target: human CTLA-4.ECD.hFc (human) (UniProt P16410); assay: competition ELISA: coated human CTLA-4.ECD.hFc, antibody pre-mixed with CD80-6xHis, bound ligand detected through anti-His [A) CD80]
[15] = biological target: human CTLA-4.ECD.hFc (human) (UniProt P16410); assay: competition ELISA: coated human CTLA-4.ECD.hFc, antibody pre-mixed with CD86-6xHis, bound ligand detected through anti-His [B) CD86]
[16] = biological target: hCTLA-4.ECD.hFc-Biotin (human) (UniProt P16410); assay: competition FACS: antibody mixed with hCTLA-4.ECD.hFc-Biotin, added to ligand-expressing CHO cells, streptavidin-PE; lower panel, not labelled on the sheet, taken as the CD86 cells from the order of the text [lower panel]
[17] = biological target: hCTLA-4.ECD.hFc-Biotin (human) (UniProt P16410); assay: competition FACS: antibody mixed with hCTLA-4.ECD.hFc-Biotin, added to ligand-expressing CHO cells, streptavidin-PE; upper panel, not labelled on the sheet, taken as the CD80 cells from the order of the text [upper panel]
[18] = biological target: human CTLA-4 (Example 3 ELISAs, construct not stated) (human) (UniProt P16410); assay: ELISA
[19] = biological target: full length human CTLA-4 on cells (human) (UniProt P16410); assay: FACS on CTLA-4-expressing cell line
[20] = biological target: human CTLA-4 (Example 3 ELISAs, construct not stated) (human) (UniProt P16410); assay: ELISA, antibody titrated on human CTLA-4, OD450
[21] = biological target: full length human CTLA-4 on cells (human) (UniProt P16410); assay: FACS on a cell line expressing human CTLA-4, MFI
[22] = biological target: human CTLA-4.ECD-6×His (human) (UniProt P16410); assay: SPR, antibody captured on immobilized goat anti-human Fc, human CTLA-4 ECD injected
[23] = biological target: human CTLA-4.ECD-6×His (human) (UniProt P16410); assay: SPR, antibody captured on anti-human Fc, human CTLA-4 ECD injected at several concentrations
[24] = biological target: human CTLA-4 (Example 3 ELISAs, construct not stated) (human) (UniProt P16410); assay: competition ELISA: coated human CTLA-4, antibody mixed with biotinylated CD80, bound ligand detected with streptavidin-HRP [A) CD80]
[25] = biological target: human CTLA-4 (Example 3 ELISAs, construct not stated) (human) (UniProt P16410); assay: competition ELISA: coated human CTLA-4, antibody mixed with biotinylated CD86, bound ligand detected with streptavidin-HRP [B) CD86]
[26] = biological target: biotinylated human CTLA-4 (Example 3 FACS competition) (human) (UniProt P16410); assay: competition FACS: antibody mixed with biotinylated human CTLA-4, added to CD80-expressing cells (panel title W316-CHO-K1.hPro1.L1), bound CTLA-4 detected with streptavidin-PE [A]
[27] = biological target: biotinylated human CTLA-4 (Example 3 FACS competition) (human) (UniProt P16410); assay: competition FACS: antibody mixed with biotinylated human CTLA-4, added to CD86-expressing cells (panel title W316-CHO-K1.hPro1.L2), bound CTLA-4 detected with streptavidin-PE [B]

Measured: binding

B1: W3162_1.154.8-z35-uAb.IgG1K (antibody, V domains shown)
VH: QVQLVQSGAEVKKPGSSVKVSCKASGYTFTNYFMNWVRQAPGQGLEWMGRVDPEQGRADYAEKFKKRVTITADKSTSTAYMELSSLRSEDTAVYYCARRAMDNYGFAYWGQGTLVTVSS
VL: EIVLTQSPDFQSVTPKEKVTITCSANSALSYMYWYQQKPDQSPKLWVHGTSNLASGVPSRFSGSGSGTDFTLTINSLEAEDAATYYCHHWSNTQWTFGGGTKVEIK
binds: [1] | [2]

B2: W3162-1.145.10 xAb.IgG1 (antibody, V domains shown)
VH: EVQLVESGGGLVQPGRSLKLSCAASDLTFSNYDMAWVRQTPTKGLEWVASISPNGGNTYYRDSVKGRFTVSRDNAKNSLYLQMDSLRSEDTATYYCARHLWFAYWGQGTLVTVSS
VL: DIQMTQSPSSMSASLGDRVTISCQASQDIGSNLIWFQQKPGKSPRPMIYYATHLADGVPSRFSGSRSGSDYSLTISSLESEDVADYHCLQYKQYPRTFGGGTKLELK
binds: [3] | [4]

B3: W3162-1.146.19 xAb.IgG1 (antibody, V domains shown)
VH: EVQLQESGPGLVKPSQSLSLTCSVTYHTITSGYDWTWIRKFPGNQMEWMGYISYSGNTNYNPSLKSRISITRDTSKNQFFLHLNSVTSEDTATYYCASMMVPHYYVMDAWGQGASVTVSS
VL: DVVLTQTPPTSSATIGQSVSISCRSSQSLLNSDGNTYLYWYLQRPSQSPQLLIYLVSKLGSGVPNRFSGSGSGTDFTLKISGVEAEDLGLYYCVQGTHDPWTFGGGTKLELK
binds: [3] | [4]

B4: W3162-1.154.8 xAb.IgG1 (antibody, V domains shown)
VH: EVQLQQSGPEAGRPGSSVKISCKASGYTFTNYFMNWVKQSPGQGLEWIGRVDPENGRADYAEKFKKKATLTADTTSNTAYIHLSSLTSEDTATYFCARRAMDNYGFAYWGQGTLVTVSS
VL: EIMLTQSPTIMAASLGEKITITCSANSSLSYMYWFQQKSGASPKLWVHGTSNLASGVPDRFSGSGSGTSYYLTINTMEAEDAATYFCHHWSNTQWTFGGGTKLELK
binds: [3] | [4]

B5: W3162-1.146.19-z12-uAb.IgG1K (antibody, V domains shown)
VH: QVQLQESGPGLVKPSETLSLTCSVTYHTITSGYDWTWIRKPPGKGMEWIGYISYSGNTNYNPSLKSRVTISRDTSKNQFFLKLSSVTAADTAVYYCASMMVPHYYVMDAWGQGTLVTVSS
VL: DIVMTQTPLSLSVTPGQPASISCRSSQSLLNSDGNTYLYWYLQKPGQSPQLLIYLVSKLGSGVPNRFSGSGSGTDFTLKISRVEAEDVGVYYCVQGTHDPWTFGGGTKVEIK
not listed: [3] | [4] | [18] | [19] | [20] | [21] | [22] | [23] | [24] | [25] | [26] | [27]
binds: all other assays above

B6: W3162-1.101.2 xAb.IgG1 (antibody, V domains shown)
VH: EEQLVESGGGLVQPGKSLKLSCSASGFTFRSSAMHWIRQPPGKGLDWVAFISSGGDTAYADAVKGRFIVSRDNAENTLFLQLNSLKSEDTAIYYCVRMERIPTWGQGVMVTVSS
VL: DIVLTQSPVLAVSLGQRATISCRASQSVSISSINLIHWYQQRPGQQPKLLIYRTSNLASGIPARFSGSGSGTDFTLSIDPVQADDVADYYCQQSRESPLTFGSGTKLEIK
binds: [18] | [3] | [19] | [4] | [20] | [21] | [22] | [23] | [24] | [25] | [26] | [27]
